In article PMC5656757:
No constants are given. Whether binding was seen depends on the method and setting. Binding seen in cells or lysates may run through a third protein. Some results given as binding are weak or reduced against the parent protein; the word gives no strength.

Protein sequences, listed by entry. Tags and fused reporters are not part of them. Residues count along the entry.
UniProt P08013: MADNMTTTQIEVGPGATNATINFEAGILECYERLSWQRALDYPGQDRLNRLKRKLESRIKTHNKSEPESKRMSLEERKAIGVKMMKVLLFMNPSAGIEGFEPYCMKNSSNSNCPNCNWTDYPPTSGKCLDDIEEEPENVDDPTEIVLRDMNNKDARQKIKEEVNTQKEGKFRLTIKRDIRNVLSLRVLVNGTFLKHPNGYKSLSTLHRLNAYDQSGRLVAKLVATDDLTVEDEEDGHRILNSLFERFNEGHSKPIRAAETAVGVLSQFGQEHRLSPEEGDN
UniProt P05161, residues 1-157: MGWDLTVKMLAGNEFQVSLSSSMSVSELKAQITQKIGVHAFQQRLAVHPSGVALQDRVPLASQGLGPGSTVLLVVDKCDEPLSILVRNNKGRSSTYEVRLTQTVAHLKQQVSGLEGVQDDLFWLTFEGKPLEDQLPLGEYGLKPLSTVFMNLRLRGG
UniProt P19525: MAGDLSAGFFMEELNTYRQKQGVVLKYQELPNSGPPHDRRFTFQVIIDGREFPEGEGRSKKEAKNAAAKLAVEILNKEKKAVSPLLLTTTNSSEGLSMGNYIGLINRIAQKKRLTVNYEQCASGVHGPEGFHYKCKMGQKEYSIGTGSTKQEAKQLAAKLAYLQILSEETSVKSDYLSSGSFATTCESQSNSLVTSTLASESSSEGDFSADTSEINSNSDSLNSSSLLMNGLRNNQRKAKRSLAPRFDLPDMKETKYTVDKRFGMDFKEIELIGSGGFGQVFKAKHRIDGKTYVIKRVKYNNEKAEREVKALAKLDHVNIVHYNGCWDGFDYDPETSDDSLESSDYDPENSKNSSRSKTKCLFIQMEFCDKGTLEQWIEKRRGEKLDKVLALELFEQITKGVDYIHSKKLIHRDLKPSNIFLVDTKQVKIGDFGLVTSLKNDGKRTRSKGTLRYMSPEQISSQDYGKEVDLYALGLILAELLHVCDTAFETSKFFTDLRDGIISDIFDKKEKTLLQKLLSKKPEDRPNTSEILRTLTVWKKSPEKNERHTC

Molecular target: N-terminal V5-tagged FLUBV NS1 protein (strain B/Yamagata/1/73) (influenza B virus (strain B/Yamagata/1/73)) (UniProt P08013)
Assay: co-IP

Row | Substance | binding
1 | ISG15 (from UniProt P05161 1-157) | binds
2 | dsRNA-activated protein kinase, PKR (from UniProt P19525 1-551) | binds
